In paper PMC8427430:
No constants are given. Whether binding was seen depends on the method and setting. In cells and extracts the contact can be indirect. Here binding means that the protein was enriched with, or labelled near, the bait; the list need not be complete.

By UniProt entry, the sequences of proteins in these tests, tags left out.
UniProt Q96P20: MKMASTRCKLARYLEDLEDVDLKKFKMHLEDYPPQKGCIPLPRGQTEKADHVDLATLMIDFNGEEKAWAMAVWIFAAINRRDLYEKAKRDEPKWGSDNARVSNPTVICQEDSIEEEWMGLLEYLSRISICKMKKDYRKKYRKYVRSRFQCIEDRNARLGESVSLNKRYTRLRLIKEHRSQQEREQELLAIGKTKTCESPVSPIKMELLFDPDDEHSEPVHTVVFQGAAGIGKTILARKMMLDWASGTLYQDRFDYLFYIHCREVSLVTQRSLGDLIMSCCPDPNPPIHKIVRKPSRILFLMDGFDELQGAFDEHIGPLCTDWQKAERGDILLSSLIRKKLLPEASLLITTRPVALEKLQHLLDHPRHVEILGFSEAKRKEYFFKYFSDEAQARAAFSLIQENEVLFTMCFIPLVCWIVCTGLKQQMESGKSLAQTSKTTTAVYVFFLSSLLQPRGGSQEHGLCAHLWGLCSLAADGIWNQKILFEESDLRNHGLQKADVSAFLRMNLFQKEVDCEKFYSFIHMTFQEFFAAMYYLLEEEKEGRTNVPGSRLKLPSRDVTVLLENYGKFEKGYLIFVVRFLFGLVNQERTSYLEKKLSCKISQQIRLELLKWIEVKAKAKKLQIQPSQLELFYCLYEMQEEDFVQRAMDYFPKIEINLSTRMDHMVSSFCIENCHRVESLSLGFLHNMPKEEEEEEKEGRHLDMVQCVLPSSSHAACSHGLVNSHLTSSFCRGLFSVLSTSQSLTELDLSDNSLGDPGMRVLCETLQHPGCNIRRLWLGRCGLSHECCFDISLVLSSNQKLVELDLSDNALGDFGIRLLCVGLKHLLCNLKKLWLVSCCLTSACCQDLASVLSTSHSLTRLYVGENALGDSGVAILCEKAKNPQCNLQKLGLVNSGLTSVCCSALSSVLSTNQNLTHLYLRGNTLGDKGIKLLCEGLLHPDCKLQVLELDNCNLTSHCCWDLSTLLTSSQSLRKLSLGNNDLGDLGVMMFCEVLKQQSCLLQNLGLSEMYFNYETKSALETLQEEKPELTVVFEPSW

Target: NLRP3 (bait of the LC-MS screen) (UniProt Q96P20)
Assay: affinity purification with mass spectrometry; LC-MS of an NLRP3 precipitate to screen proteins that interact with NLRP3; cells and construct not stated (ref. 21)

B1: TRIM65 (found in the NLRP3 precipitate by LC-MS) (protein, UniProt Q6PJ69 1-517)
chain: MAAQLLEEKLTCAICLGLYQDPVTLPCGHNFCGACIRDWWDRCGKACPECREPFPDGAELRRNVALSGVLEVVRAGPARDPGPDPGPGPDPAARCPRHGRPLELFCRTEGRCVCSVCTVRECRLHERALLDAERLKREAQLRASLEVTQQQATQAEGQLLELRKQSSQIQNSACILASWVSGKFSSLLQALEIQHTTALRSIEVAKTQALAQARDEEQRLRVHLEAVARHGCRIRELLEQVDEQTFLQESQLLQPPGPLGPLTPLQWDEDQQLGDLKQLLSRLCGLLLEEGSHPGAPAKPVDLAPVEAPGPLAPVPSTVCPLRRKLWQNYRNLTFDPVSANRHFYLSRQDQQVKHCRQSRGPGGPGSFELWQVQCAQSFQAGHHYWEVRASDHSVTLGVSYPQLPRCRLGPHTDNIGRGPCSWGLCVQEDSLQAWHNGEAQRLPGVSGRLLGMDLDLASGCLTFYSLEPQTQPLYTFHALFNQPLTPVFWLLEGRTLTLCHQPGAVFPLGPQEEVLS
For B1, which binding is on record?
Its binding is “binds”.
